This passage reports median seed-adjusted z-score results from PubChem BioAssay AID1347426 (Functional Genomics Laboratory (NCATS/FGL), 2020).

Hit rate of the full screen: of about 31,000 sequences, about 1,400 (4.5%) were called active.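 The calls were made as follows: active = median seed-adjusted z-score above 1 or below -1; inactive = the rest.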 The list shows a part of the results.

This assay in a line: Novel Modifiers of Survival Motor Neuron (SMN) Protein: Gene Identification via Genome-wide siRNA Screen.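 Also: luminescence tracks full-length SMN protein made from the SMN2 reporter.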 To be noted: HEK293T SMN2-luciferase reporter, siRNA knockdown, 72 h; actives lie on both sides. The procedure, abridged:
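Genome-wide siRNA screen (10418 genes, 3 siRNAs each, 1 pmol per well) by reverse transfection in HEK293T cells stably carrying an SMN2-luciferase reporter; luminescence after 72 hours, normalized to negative-control siRNA, log10-transformed, MAD-scored.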
Take CCAAGAUGCGAUCCUCCAATT against HOXA4: the median seed-adjusted z-score was inactive: 0.194. The value for GCUCCACACUGAUGAAUCATT against ZNF250 was inactive: -0.00985; that for AAGGAAGUAUUGCUACUAATT against SYNPR was inactive: 0.257; that for CAACUUCUCCGUAGCAGAATT against AKT2 was inactive: 0. The value for CCCUUAAUCCUGUCUUCAATT against SYT1 was inactive: 0.435; that for GAUGCAAUCAGUGAAGAAATT against SAR1A was inactive: 0.0213.

For the sequence CCAUCGCCAAGAUUCGGGATT against CYP26C1, the median seed-adjusted z-score is inactive: -0.276. Take CCAGAUGUUUUCUACCUGATT against CHST4: the median seed-adjusted z-score was inactive: 0.349. On to CCAAGAAUGCUGCAUCGGATT against ZMYND11, for which the median seed-adjusted z-score is inactive: -0.032. As to AGGACGGUGCAGUACAGAATT against ZBTB46, the median seed-adjusted z-score is inactive: 0.0546. The value for GAGCAGACUGGAAAUCUAATT against DDX24 was inactive: 0.246; that for GAAUCACUGUUUACGUAUUTT against ADCY5 was inactive: -0.123; that for GCAGAUUUAUCAACGGCUUTT against XIAP was inactive: -0.0329. Consider GGACUAAUCGAGUCAAGCUTT against DUSP1, for which the median seed-adjusted z-score was inactive: 0.336. Next, GCAGUUUGCAUGUUACAAATT against OXNAD1: inactive: 0.36. The value for CGUUUUAGAUGAUCCAGAUTT against CALU was inactive: 0.123; that for AAACACCGCUGUUCCGUAATT against MED8 was active: -1.61. The value for GGUACAUCUAUACUACCAATT against POLR3C was inactive: -0.294.

Consider CACUGCAAGUGGACAUCAATT against TGFB1, for which the median seed-adjusted z-score was inactive: 0. The value for GCUAUACUAAUAAGUCAUATT against ZNF337 was inactive: 0.104. In the case of GAACUGCUCCGCCUACUACTT against COMTD1, the median seed-adjusted z-score was inactive: 0.0487. Next, GCGCUAAAGUGGAUAAUGATT against ABLIM3: inactive: -0.29. The value for CACUUAUCUCGAAAGCCUATT against SLC37A1 was inactive: -0.102; that for CCCUAUGACUGUAAUCACUTT against ZNF200 was inactive: 0.498; that for GGGUGGAUAUGAGAUCCCATT against KLC4 was inactive: 0. Next, GCAACGCAGAUGCGGCAAATT against BAD: inactive: 0; GGUCAGCAACUAUAGUCGATT against FOLR3: inactive: 0. CGGACGACGUAAUCACUGATT against HCLS1: the median seed-adjusted z-score was inactive: 0.107.

Consider GCUUAAUAAUUUCCUCCGATT against CADPS2, for which the median seed-adjusted z-score was inactive: -0.0213.

Regarding CAAAGGACCCAAUAGAAUUTT against GUCY2F, the median seed-adjusted z-score was inactive: 0.188. As to GGACUGACAUUUCACGUAUTT against THAP6, the median seed-adjusted z-score was inactive: 0.368. In the case of GGAAAUUGAUAACUACAAATT against ERC1, the median seed-adjusted z-score is inactive: 0.415. As to AGAGUACCGGUAUUCCCAATT against FOXK1, the median seed-adjusted z-score is inactive: 0.63. The value for GAUACGAAAUGGUGUUAAATT against POLG2 was inactive: 0. Consider AGGACAUUAUCAACCCGGATT against DMAP1, for which the median seed-adjusted z-score is inactive: 0.342.

Turning to GGACUCGAAGGUUCACGAATT against ODZ2, the median seed-adjusted z-score is inactive: -0.0233.

For the sequence GCCCAUUGCUAUCAGCAGATT against ZNF512B, the median seed-adjusted z-score is inactive: 0.212.

GUCCAAAUGAAUUACCUGATT against NDN: the median seed-adjusted z-score is inactive: -0.146. Next, GGACAAGUGCAAACGUAAATT against CR1L: inactive: -0.038; CCAACUACACUGACUGGUUTT against TSPAN4: inactive: 0.417. In the case of GACCAGAUAUUGUGAACUUTT against RPL4, the median seed-adjusted z-score was inactive: 0.573.

For GCUUGAUACCUUUAUAGGATT against UGP2, the median seed-adjusted z-score is inactive: 0.0766. Next, CUCAUUGAGUUGGACAAAUTT against RHOU: active: -1.44; CGACGAUUCUUCUACUCAATT against CDKN1B: inactive: 0.244. With GGAGUUCAAUGUAUGUCUATT against SPINK6, the median seed-adjusted z-score was inactive: 0.275. The value for AGUAGAACGUGUACGCAGATT against MGST1 was inactive: -0.0144. Turning to CCCUGUUCGGAGAUUGAUATT against BARHL2, the median seed-adjusted z-score is inactive: -0.147. Next, GCAGGGAGAGAGCAACCAATT against GHRH: inactive: -0.16; GGACUAUCAGUGCAUCCAATT against FNBP1L: inactive: -0.0815.

As to GGAGUUCGAUUAUCAACAATT against DGKH, the median seed-adjusted z-score is inactive: 0.13. The value for GGAUAGGCACUCUUCCGAUTT against CHST9 was inactive: 0.252.

Turning to GCAAGAUCGUCCACUACAATT against DMPK, the median seed-adjusted z-score was inactive: -0.0417. The value for CAGUGACUAUGAGAGUGUATT against SCARB2 was inactive: -0.244; that for AGAAAGGUUUUACUACAAUTT against POLR2C was active: -2.95; that for CAGUGUUAAUGACCGAAGATT against EIF4G1 was inactive: -0.978. Next, GUGUCAAAGUGGAGAGGCATT against CTSD: inactive: -0.282. The value for GCAUUUACCGCCGAGCUAATT against COL8A1 was inactive: -0.848; that for GGCAUCUCAUGGUCUGGAATT against PIGO was inactive: -0.218; that for CGGCACAUCCUGCUUUGUUTT against ZNF213 was active: 1.37.

As for GUGCAGAUCUUAGAGUACATT against ZFP82, the median seed-adjusted z-score was inactive: 0.57. The value for GCAGUUCCCUAACGCAUCATT against RECQL was inactive: -0.905; that for GAACUUAUAAGUGCAGCAATT against ZNF547 was inactive: 0.099.

On to GCAAGAAUUUCGAUGACUATT against FABP3, for which the median seed-adjusted z-score is inactive: -0.0786.

For the sequence GCAUGUGAAUGUCAGGAAUTT against ZNF439, the median seed-adjusted z-score is inactive: -0.26.

GCAUCGAGCAGGAACAGAATT against ATP2B2: the median seed-adjusted z-score was active: 1.37. The value for GCACAAGGCUCUACAACCATT against SLC25A35 was inactive: -0.762; that for GGCGAACCCUGACUAUCAATT against NR4A2 was inactive: -0.654; that for GGUUCUAUACUUACAUCAATT against SLC15A1 was inactive: -0.693. With GACCGUUCACUGUACAACATT against FUT9, the median seed-adjusted z-score is inactive: 0.0444.

As for CCAAUCCUUUGUAAUCGAATT against PLCL1, the median seed-adjusted z-score is inactive: 0.000254. The value for GGAAAGUUCUUUAGACUUATT against ZNF529 was inactive: -0.243; that for GCUCCUCUGAUAUCACGUUTT against LMO7 was inactive: 0.417. For the sequence GGAAAUGACUGGAGUUGGATT against ENOX2, the median seed-adjusted z-score was inactive: 0.0233. The value for AGAAUUACCCACUUCGUAATT against BAHD1 was inactive: 0.376; that for GCAGCACACCGCUAAACAATT against GRHL1 was inactive: 0.115; that for GGAUGGAUGAGUACGCAGATT against GALNT10 was inactive: 0.

Take GGGUUGUUUAUGUUACAAATT against MNDA: the median seed-adjusted z-score is inactive: 0.232. The value for ACUUUUAUGUUGAUGAGAATT against SERPINA4 was inactive: 0.419. Next, CGCUGGAAGUUUUGCGUGATT against ECE1: inactive: -0.344. The value for GGACCUCAAUGGGUCACAATT against RASL10A was inactive: 0.151; that for AACCAUAACUCAUUCCUGATT against RHOH was inactive: 0.443.

As for GCUGUGUACUUCAUCCGGATT against ZNF3, the median seed-adjusted z-score is inactive: -0.149. Next, GGUCAUGCAGGGUUGGAAATT against ALDH1B1: inactive: 0.105. Next, GCGACAACGUGGUACUCAUTT against CORO1B: inactive: 0.405. On to AAACUCCAGAUAAAGUAAATT against CTSH, for which the median seed-adjusted z-score was inactive: -0.81.

Take CAAAAUCGAUGCAAACAAUTT against BBOX1: the median seed-adjusted z-score is inactive: 0.152. Next, AGCUCAGAGAGGAUCAAGATT against LEPREL2: inactive: 0.0022; CAGGCAGAUUGCUCAAGAATT against KSR2: inactive: -0.371; GGCUGUUGCUAAUGCUAAATT against PLA2G4C: inactive: 0.331. The value for CCACCUUAAAACUCACGUUTT against MTF1 was inactive: -0.709.

Take CCACAAGCCCAAACAAUCATT against SP1: the median seed-adjusted z-score is inactive: 0.544.

Regarding GGAGUUUGCUUACCACGGUTT against RFX6, the median seed-adjusted z-score was inactive: 0.119. As to GGAUAUAAGAGACCAUUGATT against KIF3B, the median seed-adjusted z-score was inactive: 0.554. On to AGAUUGACUCGGUGAAAUATT against RAC2, for which the median seed-adjusted z-score is inactive: -0.596. Turning to AGAUGGUCAUCUUACUCAUTT against PTGER4, the median seed-adjusted z-score was inactive: -0.289.

CAGUAGUGAUAUCCACUUATT against OXGR1: the median seed-adjusted z-score is inactive: -0.0388. Next, CAUCCGAUCUGAUAGGUCUTT against EFEMP1: inactive: 0.0157; CAAGGAGCAGGGAUAUGAATT against ADAP2: active: -1.1; CCUUCUACAUGACCAACUATT against BCKDHA: inactive: -0.299. Regarding GUACAAUUCGUGUCAAUUUTT against PPIE, the median seed-adjusted z-score was inactive: -0.699. GGAAGAGAUUUAUAACAAATT against DLG3: the median seed-adjusted z-score is inactive: -0.317. Next, CAGGAAACCUGACAGUUCATT against IL4R: inactive: 0; GGUCAGAGCUGACGAUGAATT against HSP90B1: inactive: 0. The value for AGAAAGGCCUGUUCAACUATT against DUSP10 was inactive: 0.28.

With GCCUCUACAAGGAUUAUGATT against GJB4, the median seed-adjusted z-score was inactive: 0.131. Next, GCGGCUAGCUUUACGAGAATT against ZFYVE16: inactive: 0.314. The value for AAGCUUGUGCUGUAAAAUATT against NDUFA2 was inactive: -0.694; that for UCAUCGUCCUCACUUUUAATT against LRRC33 was inactive: -0.194.
